{"sequences": {"note": "The chains behind the UniProt entries cited, without tags or fusion partners. Where a name states a change or a piece, a line headed by the entry shows the natural chain unless it says otherwise.", "UniProt P10636, whole entry": "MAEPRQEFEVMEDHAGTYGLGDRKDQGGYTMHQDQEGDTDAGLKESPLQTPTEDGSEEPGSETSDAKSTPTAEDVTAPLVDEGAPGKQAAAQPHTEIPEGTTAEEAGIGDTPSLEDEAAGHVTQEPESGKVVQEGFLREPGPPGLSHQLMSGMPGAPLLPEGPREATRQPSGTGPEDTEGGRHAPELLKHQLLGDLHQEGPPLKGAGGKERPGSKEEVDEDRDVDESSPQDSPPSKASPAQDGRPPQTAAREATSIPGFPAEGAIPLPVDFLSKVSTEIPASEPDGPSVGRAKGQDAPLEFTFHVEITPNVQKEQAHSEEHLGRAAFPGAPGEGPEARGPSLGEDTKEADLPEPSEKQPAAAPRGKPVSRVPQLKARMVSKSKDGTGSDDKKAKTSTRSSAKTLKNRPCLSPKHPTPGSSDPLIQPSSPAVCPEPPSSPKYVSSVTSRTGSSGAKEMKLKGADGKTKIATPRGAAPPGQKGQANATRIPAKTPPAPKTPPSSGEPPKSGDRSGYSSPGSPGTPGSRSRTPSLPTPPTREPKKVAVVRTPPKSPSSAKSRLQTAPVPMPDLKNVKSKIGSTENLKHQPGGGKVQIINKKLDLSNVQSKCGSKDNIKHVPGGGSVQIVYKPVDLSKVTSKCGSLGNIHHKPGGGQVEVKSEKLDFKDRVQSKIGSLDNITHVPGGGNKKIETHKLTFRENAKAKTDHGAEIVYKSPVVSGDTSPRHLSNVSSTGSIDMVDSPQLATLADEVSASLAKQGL", "UniProt Q9Y4Y9": "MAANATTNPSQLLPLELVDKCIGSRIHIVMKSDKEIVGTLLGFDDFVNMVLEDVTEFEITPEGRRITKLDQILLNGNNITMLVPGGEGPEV", "UniProt P51948": "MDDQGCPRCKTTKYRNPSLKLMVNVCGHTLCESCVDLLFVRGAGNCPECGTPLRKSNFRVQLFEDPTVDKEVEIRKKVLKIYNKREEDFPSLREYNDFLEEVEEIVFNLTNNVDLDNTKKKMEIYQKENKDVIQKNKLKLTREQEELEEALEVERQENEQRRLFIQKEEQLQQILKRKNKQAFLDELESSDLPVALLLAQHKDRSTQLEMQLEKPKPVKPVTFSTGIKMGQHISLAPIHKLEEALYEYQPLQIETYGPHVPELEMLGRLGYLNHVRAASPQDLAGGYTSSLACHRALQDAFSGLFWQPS", "UniProt Q9UNW1": "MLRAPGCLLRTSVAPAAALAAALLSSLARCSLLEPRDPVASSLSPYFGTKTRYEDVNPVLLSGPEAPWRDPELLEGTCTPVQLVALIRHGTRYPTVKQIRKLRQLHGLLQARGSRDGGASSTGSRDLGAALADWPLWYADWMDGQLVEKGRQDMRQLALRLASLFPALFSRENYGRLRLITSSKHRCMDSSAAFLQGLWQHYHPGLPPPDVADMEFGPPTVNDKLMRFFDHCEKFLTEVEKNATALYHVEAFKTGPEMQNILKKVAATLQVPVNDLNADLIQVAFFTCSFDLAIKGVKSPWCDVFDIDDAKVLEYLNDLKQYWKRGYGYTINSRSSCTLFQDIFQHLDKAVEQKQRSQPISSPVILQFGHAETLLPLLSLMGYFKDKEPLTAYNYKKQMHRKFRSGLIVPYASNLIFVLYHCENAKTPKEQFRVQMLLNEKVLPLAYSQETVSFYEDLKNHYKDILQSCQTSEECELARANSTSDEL", "UniProt P49914": "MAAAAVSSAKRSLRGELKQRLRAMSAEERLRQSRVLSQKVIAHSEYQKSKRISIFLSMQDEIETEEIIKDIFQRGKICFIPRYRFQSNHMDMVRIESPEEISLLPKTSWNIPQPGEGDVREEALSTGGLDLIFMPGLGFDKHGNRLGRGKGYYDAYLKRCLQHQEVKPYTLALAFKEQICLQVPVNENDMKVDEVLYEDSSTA", "UniProt O75608": "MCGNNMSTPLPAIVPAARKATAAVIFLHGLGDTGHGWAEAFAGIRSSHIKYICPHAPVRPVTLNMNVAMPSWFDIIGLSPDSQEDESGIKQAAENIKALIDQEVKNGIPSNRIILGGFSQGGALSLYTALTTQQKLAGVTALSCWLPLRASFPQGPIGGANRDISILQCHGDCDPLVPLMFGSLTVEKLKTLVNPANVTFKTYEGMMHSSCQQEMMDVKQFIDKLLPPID", "UniProt Q99550": "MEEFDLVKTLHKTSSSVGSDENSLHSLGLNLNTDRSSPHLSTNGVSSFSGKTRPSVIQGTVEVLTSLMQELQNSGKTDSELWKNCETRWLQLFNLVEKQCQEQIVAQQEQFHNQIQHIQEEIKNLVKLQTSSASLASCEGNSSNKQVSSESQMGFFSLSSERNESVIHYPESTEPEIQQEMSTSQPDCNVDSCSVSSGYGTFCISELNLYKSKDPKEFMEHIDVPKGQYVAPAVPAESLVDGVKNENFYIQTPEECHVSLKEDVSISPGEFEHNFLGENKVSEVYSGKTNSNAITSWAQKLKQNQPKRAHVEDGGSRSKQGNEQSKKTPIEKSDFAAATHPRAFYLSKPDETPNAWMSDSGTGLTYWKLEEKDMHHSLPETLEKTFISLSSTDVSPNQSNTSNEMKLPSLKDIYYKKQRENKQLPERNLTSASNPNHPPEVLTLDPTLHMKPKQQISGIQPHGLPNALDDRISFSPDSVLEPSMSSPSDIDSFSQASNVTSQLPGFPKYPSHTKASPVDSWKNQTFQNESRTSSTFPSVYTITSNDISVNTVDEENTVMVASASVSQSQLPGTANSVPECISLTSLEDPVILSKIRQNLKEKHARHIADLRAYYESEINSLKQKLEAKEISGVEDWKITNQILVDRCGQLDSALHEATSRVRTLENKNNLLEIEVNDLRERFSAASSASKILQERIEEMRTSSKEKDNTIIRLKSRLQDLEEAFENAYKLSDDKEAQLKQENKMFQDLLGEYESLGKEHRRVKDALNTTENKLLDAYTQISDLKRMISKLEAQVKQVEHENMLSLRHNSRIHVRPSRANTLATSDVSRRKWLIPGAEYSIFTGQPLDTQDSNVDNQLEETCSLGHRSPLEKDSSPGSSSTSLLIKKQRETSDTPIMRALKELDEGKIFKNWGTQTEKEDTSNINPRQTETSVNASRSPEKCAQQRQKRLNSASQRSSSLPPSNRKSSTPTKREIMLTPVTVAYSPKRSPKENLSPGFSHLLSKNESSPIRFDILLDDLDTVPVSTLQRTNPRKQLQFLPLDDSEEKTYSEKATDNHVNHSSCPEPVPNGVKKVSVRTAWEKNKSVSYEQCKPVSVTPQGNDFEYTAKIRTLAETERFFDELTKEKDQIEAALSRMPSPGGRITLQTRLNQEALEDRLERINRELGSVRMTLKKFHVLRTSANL", "UniProt O75586": "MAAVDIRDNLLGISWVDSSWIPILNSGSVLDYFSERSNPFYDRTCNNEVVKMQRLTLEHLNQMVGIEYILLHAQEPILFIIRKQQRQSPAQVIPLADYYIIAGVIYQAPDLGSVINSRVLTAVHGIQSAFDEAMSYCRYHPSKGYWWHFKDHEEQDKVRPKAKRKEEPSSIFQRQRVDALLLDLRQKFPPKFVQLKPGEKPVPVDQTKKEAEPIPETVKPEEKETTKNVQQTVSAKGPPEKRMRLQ", "UniProt O95777": "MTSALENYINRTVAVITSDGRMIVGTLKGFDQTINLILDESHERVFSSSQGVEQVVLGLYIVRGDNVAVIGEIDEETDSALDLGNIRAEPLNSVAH", "UniProt Q86V48": "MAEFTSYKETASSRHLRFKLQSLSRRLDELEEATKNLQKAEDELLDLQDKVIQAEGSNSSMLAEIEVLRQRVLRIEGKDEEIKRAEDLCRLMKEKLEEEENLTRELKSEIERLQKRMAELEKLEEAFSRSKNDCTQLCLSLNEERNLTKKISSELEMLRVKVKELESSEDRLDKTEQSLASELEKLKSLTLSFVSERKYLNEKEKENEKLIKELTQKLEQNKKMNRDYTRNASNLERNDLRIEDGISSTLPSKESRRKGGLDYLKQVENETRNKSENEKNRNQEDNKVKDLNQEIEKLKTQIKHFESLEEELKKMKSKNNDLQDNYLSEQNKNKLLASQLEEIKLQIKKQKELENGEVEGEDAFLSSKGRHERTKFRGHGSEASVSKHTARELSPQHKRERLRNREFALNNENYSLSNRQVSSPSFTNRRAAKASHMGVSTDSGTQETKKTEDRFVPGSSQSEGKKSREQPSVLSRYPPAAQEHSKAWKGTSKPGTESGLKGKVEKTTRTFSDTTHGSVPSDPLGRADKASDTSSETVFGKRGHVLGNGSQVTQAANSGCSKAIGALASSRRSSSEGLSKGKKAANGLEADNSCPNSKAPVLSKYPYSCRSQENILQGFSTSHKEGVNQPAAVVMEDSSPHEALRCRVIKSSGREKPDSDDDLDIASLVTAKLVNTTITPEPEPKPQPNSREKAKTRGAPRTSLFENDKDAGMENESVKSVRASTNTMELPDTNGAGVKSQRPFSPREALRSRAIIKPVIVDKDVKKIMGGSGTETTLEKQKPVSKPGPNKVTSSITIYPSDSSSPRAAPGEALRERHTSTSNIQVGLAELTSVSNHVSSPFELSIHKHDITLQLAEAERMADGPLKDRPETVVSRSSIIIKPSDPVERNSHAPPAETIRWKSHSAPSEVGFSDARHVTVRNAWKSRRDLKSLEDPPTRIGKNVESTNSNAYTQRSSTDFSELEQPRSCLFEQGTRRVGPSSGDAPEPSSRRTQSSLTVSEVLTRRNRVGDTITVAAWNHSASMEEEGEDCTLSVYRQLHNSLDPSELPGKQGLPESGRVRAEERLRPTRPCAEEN", "UniProt Q14696": "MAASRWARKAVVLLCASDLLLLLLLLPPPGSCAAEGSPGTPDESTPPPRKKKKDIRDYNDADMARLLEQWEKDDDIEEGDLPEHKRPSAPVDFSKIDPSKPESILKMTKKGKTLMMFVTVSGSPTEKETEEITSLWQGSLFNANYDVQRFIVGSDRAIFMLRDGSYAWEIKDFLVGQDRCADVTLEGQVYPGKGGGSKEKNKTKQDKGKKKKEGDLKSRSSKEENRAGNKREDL", "UniProt Q96DH6": "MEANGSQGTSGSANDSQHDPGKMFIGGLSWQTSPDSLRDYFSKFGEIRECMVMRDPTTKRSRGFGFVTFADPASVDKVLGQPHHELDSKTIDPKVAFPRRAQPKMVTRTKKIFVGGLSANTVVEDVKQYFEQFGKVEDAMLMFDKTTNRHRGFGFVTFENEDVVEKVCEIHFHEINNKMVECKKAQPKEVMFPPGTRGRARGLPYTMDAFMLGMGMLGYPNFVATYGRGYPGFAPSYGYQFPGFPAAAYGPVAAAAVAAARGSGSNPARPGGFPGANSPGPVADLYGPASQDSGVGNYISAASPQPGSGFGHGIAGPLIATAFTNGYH", "UniProt Q13496": "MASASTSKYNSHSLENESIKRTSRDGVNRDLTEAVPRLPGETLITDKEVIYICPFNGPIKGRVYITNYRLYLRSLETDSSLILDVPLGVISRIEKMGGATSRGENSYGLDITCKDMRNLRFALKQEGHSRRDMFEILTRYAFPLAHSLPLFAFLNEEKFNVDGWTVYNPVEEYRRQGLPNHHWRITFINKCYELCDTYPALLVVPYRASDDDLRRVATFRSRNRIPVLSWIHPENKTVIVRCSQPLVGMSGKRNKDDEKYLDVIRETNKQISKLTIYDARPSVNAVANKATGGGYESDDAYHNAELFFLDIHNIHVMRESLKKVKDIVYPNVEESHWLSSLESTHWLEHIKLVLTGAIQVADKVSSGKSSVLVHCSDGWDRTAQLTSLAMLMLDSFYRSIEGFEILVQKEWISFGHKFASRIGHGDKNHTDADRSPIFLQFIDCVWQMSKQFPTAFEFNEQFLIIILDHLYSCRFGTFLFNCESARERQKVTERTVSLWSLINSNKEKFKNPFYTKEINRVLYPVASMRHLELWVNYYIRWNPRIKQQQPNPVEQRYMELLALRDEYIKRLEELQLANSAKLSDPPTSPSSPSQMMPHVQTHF", "UniProt Q9Y6D9": "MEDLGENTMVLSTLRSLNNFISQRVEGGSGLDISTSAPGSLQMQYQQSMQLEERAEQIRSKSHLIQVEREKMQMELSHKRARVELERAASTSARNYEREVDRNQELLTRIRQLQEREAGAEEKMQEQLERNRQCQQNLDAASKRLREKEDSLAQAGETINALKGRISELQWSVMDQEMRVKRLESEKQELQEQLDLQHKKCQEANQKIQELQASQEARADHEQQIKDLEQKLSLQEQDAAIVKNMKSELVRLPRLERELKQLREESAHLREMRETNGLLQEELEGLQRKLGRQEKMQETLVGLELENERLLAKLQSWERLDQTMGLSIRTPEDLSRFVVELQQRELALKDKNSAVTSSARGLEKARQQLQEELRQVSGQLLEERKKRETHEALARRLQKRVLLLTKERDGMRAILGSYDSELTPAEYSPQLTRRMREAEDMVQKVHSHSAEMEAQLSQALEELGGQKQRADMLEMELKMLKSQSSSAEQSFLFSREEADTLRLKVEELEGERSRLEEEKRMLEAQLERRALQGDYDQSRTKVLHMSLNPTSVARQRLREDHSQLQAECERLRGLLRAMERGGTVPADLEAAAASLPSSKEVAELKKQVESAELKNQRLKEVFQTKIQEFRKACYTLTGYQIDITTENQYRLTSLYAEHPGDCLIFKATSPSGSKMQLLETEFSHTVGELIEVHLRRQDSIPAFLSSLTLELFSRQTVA"}, "source": "the supplement of paper PMC7666118", "note": "This is one part of the list.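 Rule for the calls: active = dose-dependent thermal stabilisation significant by F-test of dose-response against flat model at 10% FDR; inactive = not significant.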", "data": [{"compound": "Nc1nc2c(ncn2[C@@H]2O[C@H](COP(=O)(O)OP(=O)(O)OP(=O)(O)O)[C@@H](O)[C@H]2O)c(=O)[nH]1", "assay": "dose-dependent thermal stabilisation call (2D-TPP, DLPTP, 10% FDR) (binary (1 = stabilised)); higher = stabilised by the compound", "settings": "system: Jurkat gel-filtered lysate; concentration range 1-500 µM", "values": [{"target": "MED13L (UniProt Q71F56)", "dose-dependent thermal stabilisation call": "inactive: 0"}, {"target": "MYNN (UniProt Q9NPC7)", "dose-dependent thermal stabilisation call": "inactive: 0"}, {"target": "MAP3K20 (UniProt Q9NYL2)", "dose-dependent thermal stabilisation call": "inactive: 0"}, {"target": "MRRF (UniProt Q96E11)", "dose-dependent thermal stabilisation call": "inactive: 0"}, {"target": "MAPT (UniProt P10636)", "dose-dependent thermal stabilisation call": "inactive: 0"}, {"target": "MTMR1 (UniProt Q13613)", "dose-dependent thermal stabilisation call": "inactive: 0"}, {"target": "LSM5 (UniProt Q9Y4Y9)", "dose-dependent thermal stabilisation call": "inactive: 0"}, {"target": "MCM4 (UniProt P33991)", "dose-dependent thermal stabilisation call": "inactive: 0"}, {"target": "MNAT1 (UniProt P51948)", "dose-dependent thermal stabilisation call": "inactive: 0"}, {"target": "MINPP1 (UniProt Q9UNW1)", "dose-dependent thermal stabilisation call": "inactive: 0"}, {"target": "MTHFS (UniProt P49914)", "dose-dependent thermal stabilisation call": "active: 1"}, {"target": "LYPLA1 (UniProt O75608)", "dose-dependent thermal stabilisation call": "inactive: 0"}, {"target": "MPHOSPH9 (UniProt Q99550)", "dose-dependent thermal stabilisation call": "inactive: 0"}, {"target": "MARS2 (UniProt Q96GW9)", "dose-dependent thermal stabilisation call": "inactive: 0"}, {"target": "MRPS27 (UniProt Q92552)", "dose-dependent thermal stabilisation call": "active: 1"}, {"target": "MED6 (UniProt O75586)", "dose-dependent thermal stabilisation call": "inactive: 0"}, {"target": "MKL2 (UniProt Q9ULH7)", "dose-dependent thermal stabilisation call": "active: 1"}, {"target": "LSM8 (UniProt O95777)", "dose-dependent thermal stabilisation call": "inactive: 0"}, {"target": "LUZP1 (UniProt Q86V48)", "dose-dependent thermal stabilisation call": "inactive: 0"}, {"target": "MESDC2 (UniProt Q14696)", "dose-dependent thermal stabilisation call": "inactive: 0"}, {"target": "MCCC2 (UniProt Q9HCC0)", "dose-dependent thermal stabilisation call": "inactive: 0"}, {"target": "MSI2 (UniProt Q96DH6)", "dose-dependent thermal stabilisation call": "inactive: 0"}, {"target": "LZIC (UniProt Q8WZA0)", "dose-dependent thermal stabilisation call": "inactive: 0"}, {"target": "LSM1 (UniProt O15116)", "dose-dependent thermal stabilisation call": "inactive: 0"}, {"target": "MRTO4 (UniProt Q9UKD2)", "dose-dependent thermal stabilisation call": "active: 1"}, {"target": "MTM1 (UniProt Q13496)", "dose-dependent thermal stabilisation call": "inactive: 0"}, {"target": "MAD1L1 (UniProt Q9Y6D9)", "dose-dependent thermal stabilisation call": "inactive: 0"}]}]}
